Data source: PubChem BioAssay AID493246 (Drosophila RNAi Screening Center, 2011)
The deposit covers about 21,000 reagents; below is a random part of those with a known target gene and a result. Over the whole deposit, 429 (2%) are marked active. 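Values are raw and not normalised between plates; calls rest on per-plate z-scores that were not deposited.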 Names joined by + are all predicted targets of the reagent. The record does not give: the amount of reagent, the time to read-out.

Aim: 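Genome-wide search for dsRNAs that reduce cell number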 (primary screen)
Cells: Drosophila Kc and S2R+ cells
Reagent: long dsRNA against Drosophila genes
Measured: 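Cell number per well after knock-down, printed as raw plate values; calls were based on per-plate z-scores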
Reading the numbers: Kc cell number and S2R+ cell number: higher = more cells remaining
Hit rule: 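Active when the per-plate z-score of cell number is 3 or more in the direction of fewer cells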

| Target gene | DRSC id | Kc cell number, rep 1 | Kc cell number, rep 2 | S2R+ cell number, rep 1 | S2R+ cell number, rep 2 | Outcome |
| --- | --- | --- | --- | --- | --- | --- |
| peg | DRSC15216 | 1.21e6 | 1.30e6 | 1.11e6 | 1.13e6 | inactive |
| CG13002 | DRSC19521 | 1.56e6 | 1.62e6 | 1.20e6 | 1.27e6 | inactive |
| kkv | DRSC12315 | 1.50e6 | 1.57e6 | 1.23e6 | 1.28e6 | inactive |
| Tsf3 | DRSC06849 | 1.31e6 | 1.33e6 | 1.14e6 | 1.22e6 | inactive |
| Rh5 | DRSC03412 | 1.34e6 | 1.37e6 | 1.10e6 | 1.17e6 | inactive |
| CG15522 | DRSC15059 | 1.48e6 | 1.51e6 | 1.06e6 | 1.17e6 | inactive |
| wge | DRSC15246 | 1.51e6 | 1.64e6 | 1.21e6 | 1.27e6 | inactive |
| wge | DRSC15672 | 1.57e6 | 1.52e6 | 1.01e6 | 1.12e6 | inactive |
| Ir75c | DRSC10190 | 1.28e6 | 1.33e6 | 1.21e6 | 1.36e6 | inactive |
| SoYb | DRSC02901 | 1.43e6 | 1.51e6 | 1.12e6 | 1.26e6 | inactive |
| obe | DRSC15736 | 1.51e6 | 1.67e6 | 1.37e6 | 1.49e6 | inactive |
| sdk | DRSC18831 | 5.15e5 | – | 8.24e5 | – | inactive |
| CG10357 | DRSC08155 | 1.40e6 | 1.26e6 | 9.95e5 | 1.18e6 | inactive |
| CG13077 | DRSC02181 | 1.62e6 | 1.68e6 | 1.36e6 | 5.47e5 | inactive |
| CG34024 (retired record) | DRSC13734 | 1.23e6 | 1.52e6 | 1.05e6 | 1.09e6 | inactive |
| l(3)62Be (retired record) | DRSC08231 | 1.61e6 | 1.56e6 | 1.09e6 | 1.10e6 | inactive |
| CG15014 | DRSC08468 | 1.69e6 | 1.56e6 | 1.00e6 | 1.16e6 | inactive |
| mRRF1 | DRSC10421 | 1.56e6 | 1.60e6 | 1.16e6 | 1.18e6 | inactive |
| RpL21 | DRSC03704 | 9.40e5 | 1.08e6 | 7.11e5 | 2.35e5 | active |
| Rbcn-3A | DRSC18314 | 1.53e6 | 1.50e6 | 1.10e6 | 1.21e6 | inactive |
| Su(var)205 | DRSC03446 | 1.22e6 | 1.32e6 | 6.54e5 | 9.41e5 | inactive |
| Gadd45 | DRSC06033 | 1.57e6 | 1.66e6 | 1.22e6 | 1.32e6 | inactive |
| hoip | DRSC03546 | 9.49e5 | 9.80e5 | 4.58e5 | 5.40e5 | active |
| CG11523 | DRSC11669 | 1.47e6 | 1.48e6 | 1.31e6 | 1.29e6 | inactive |
| rasp | DRSC08191 | 1.47e6 | 1.45e6 | 1.10e6 | 1.17e6 | inactive |
| Cyp4d2 | DRSC18458 | 5.36e5 | – | 8.46e5 | – | inactive |
| Cp7Fa | DRSC18032 | 1.55e6 | 1.54e6 | 1.08e6 | 1.16e6 | inactive |
| Cp7Fa | DRSC18033 | 1.42e6 | 1.45e6 | 9.58e5 | 1.07e6 | inactive |
| CG2861 | DRSC18229 | 1.57e6 | 1.58e6 | 1.11e6 | 1.21e6 | inactive |
| nSMase | DRSC08237 | 1.43e6 | 1.50e6 | 1.25e6 | 1.19e6 | inactive |
| PPP1R15 | DRSC04422 | 1.20e6 | 1.32e6 | 7.43e5 | 8.09e5 | inactive |

9 entries from above, sorted by “Kc cell number, rep 1”, descending.
| Target gene | DRSC id | Kc cell number, rep 1 | Kc cell number, rep 2 | S2R+ cell number, rep 1 | S2R+ cell number, rep 2 | Outcome |
| --- | --- | --- | --- | --- | --- | --- |
| CG15014 | DRSC08468 | 1.69e6 | 1.56e6 | 1.00e6 | 1.16e6 | inactive |
| Gadd45 | DRSC06033 | 1.57e6 | 1.66e6 | 1.22e6 | 1.32e6 | inactive |
| mRRF1 | DRSC10421 | 1.56e6 | 1.60e6 | 1.16e6 | 1.18e6 | inactive |
| Rbcn-3A | DRSC18314 | 1.53e6 | 1.50e6 | 1.10e6 | 1.21e6 | inactive |
| CG11523 | DRSC11669 | 1.47e6 | 1.48e6 | 1.31e6 | 1.29e6 | inactive |
| rasp | DRSC08191 | 1.47e6 | 1.45e6 | 1.10e6 | 1.17e6 | inactive |
| Su(var)205 | DRSC03446 | 1.22e6 | 1.32e6 | 6.54e5 | 9.41e5 | inactive |
| hoip | DRSC03546 | 9.49e5 | 9.80e5 | 4.58e5 | 5.40e5 | active |
| RpL21 | DRSC03704 | 9.40e5 | 1.08e6 | 7.11e5 | 2.35e5 | active |

Further reagents follow:
| Target gene | DRSC id | Kc cell number, rep 1 | Kc cell number, rep 2 | S2R+ cell number, rep 1 | S2R+ cell number, rep 2 | Outcome |
| --- | --- | --- | --- | --- | --- | --- |
| CG13108 | DRSC02206 | 1.58e6 | 1.68e6 | 1.10e6 | 1.23e6 | inactive |
| CG4892 | DRSC01937 | 1.72e6 | 1.95e6 | 1.30e6 | 1.55e6 | inactive |
| mRpL48 | DRSC00506 | 1.45e6 | 1.66e6 | 1.03e6 | 1.18e6 | inactive |
| NaCP60E | DRSC04307 | 1.49e6 | 1.47e6 | 1.16e6 | 1.18e6 | inactive |
| Jasper | DRSC16352 | 5.35e5 | – | 8.48e5 | – | inactive |
| Sec71 | DRSC01893 | 1.47e6 | 1.54e6 | 1.13e6 | 1.27e6 | inactive |
| Uch-L5 | DRSC11314 | 1.26e6 | 1.41e6 | 1.25e6 | 1.22e6 | inactive |
| Cbp20 | DRSC16601 | 1.39e6 | 1.48e6 | 7.78e5 | 7.96e5 | inactive |
| CG17803 | DRSC15275 | 1.48e6 | 1.43e6 | 1.04e6 | 1.22e6 | inactive |
| Obp56b | DRSC06551 | 1.50e6 | 1.55e6 | 1.17e6 | 1.28e6 | inactive |
| Sdc | DRSC04654 | 1.48e6 | 1.53e6 | 1.14e6 | 3.13e5 | inactive |
| Eig71Ee | DRSC11152 | 1.39e6 | 1.81e6 | 1.40e6 | 1.61e6 | inactive |
| dimm | DRSC03100 | 1.55e6 | 1.67e6 | 1.35e6 | 4.99e5 | inactive |
| CG5880 | DRSC15906 | 5.00e5 | – | 8.29e5 | – | inactive |
| Rai1 | DRSC20157 | 1.45e6 | 1.46e6 | 1.05e6 | 1.14e6 | inactive |
| l(2)k14505 | DRSC03106 | 1.34e6 | 1.39e6 | 1.06e6 | 1.16e6 | inactive |
| CG13502 | DRSC04147 | 1.65e6 | 1.77e6 | 1.28e6 | 4.40e5 | inactive |
| CG15083 | DRSC06514 | 1.74e6 | 1.75e6 | 1.21e6 | 1.40e6 | inactive |
| TBC1d7 | DRSC15985 | 1.36e6 | 1.39e6 | 9.76e5 | 1.07e6 | inactive |
| klu | DRSC11357 | 1.53e6 | 1.46e6 | 1.22e6 | 1.34e6 | inactive |
| CG17612 | DRSC00505 | 1.34e6 | 1.34e6 | 1.04e6 | 1.10e6 | inactive |
| CG14315 | DRSC14794 | 1.38e6 | 1.41e6 | 1.12e6 | 1.24e6 | inactive |
| CG14325 | DRSC14804 | 9.24e5 | 1.11e6 | 8.02e5 | 7.98e5 | inactive |
| CG6830 | DRSC16124 | 1.63e6 | 1.77e6 | 1.26e6 | 1.35e6 | inactive |
| CG42507 + Trl | DRSC09325 | 1.40e6 | 1.52e6 | 1.11e6 | 1.22e6 | inactive |
| CG42507 + Trl | DRSC11308 | 3.03e5 | 5.18e5 | 4.23e5 | 5.20e5 | active |
| Acph-1 | DRSC14103 | 1.44e6 | 1.49e6 | 1.00e6 | 1.19e6 | inactive |
| Hsepi | DRSC04986 | 1.68e6 | 1.82e6 | 1.36e6 | 1.57e6 | inactive |
